Assay results: publication doi:10.1101/2023.01.06.523011

Experiments:
[1] = target: T1, CheV fused to the T25 adenylate cyclase subunit (C. jejuni) (UniProt Q0PBM1); test: two-hybrid
T1 sequence: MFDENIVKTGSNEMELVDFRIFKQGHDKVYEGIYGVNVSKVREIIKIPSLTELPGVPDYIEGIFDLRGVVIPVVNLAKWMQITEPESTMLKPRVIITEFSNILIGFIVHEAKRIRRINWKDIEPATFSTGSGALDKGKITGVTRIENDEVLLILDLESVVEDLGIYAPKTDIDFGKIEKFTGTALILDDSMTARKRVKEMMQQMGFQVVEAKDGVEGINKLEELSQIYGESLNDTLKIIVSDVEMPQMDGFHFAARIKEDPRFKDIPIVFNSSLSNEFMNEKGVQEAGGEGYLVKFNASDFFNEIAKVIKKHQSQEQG

[2] = target: T2, CheY fused to the T25 adenylate cyclase subunit (C. jejuni) (UniProt P0C635); test: two-hybrid
T2 sequence: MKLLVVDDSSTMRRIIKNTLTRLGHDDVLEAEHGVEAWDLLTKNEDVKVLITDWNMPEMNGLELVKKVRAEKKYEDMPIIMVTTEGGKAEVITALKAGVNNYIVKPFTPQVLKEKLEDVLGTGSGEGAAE

[3] = target: T3, GST-tagged CheY, phosphorylated with acetyl-phosphate (C. jejuni) (UniProt P0C635); test: pull-down
T3 sequence (chain, phosphorylated with acetyl phosphate (residue not printed)): T2 sequence

Row | Substance | binding [1] | binding [2] | binding [3]
1 | Cj0700 fused to the T18 adenylate cyclase subunit (from UniProt Q0PAH9) (enzyme) | binds | binds | –
2 | His-tagged Cj0700 (from UniProt Q0PAH9) (enzyme) | – | – | binds

No constants are given. Whether binding was seen depends on the method and setting. Binding can be weak; no strength is given. Sequences can lack the tags named with a protein.
